From EPA's CvTdb concentration-time database
Values joined by “and” are separate entries in the source; they are usually repeats but may differ in a detail not shown here. Identical values can stand only once. The source gives many values for each of these; only a part stands here.

Columns and labels:
Assay in all cases: concentration in plasma after dosing
[1] = tested on: Mouse; conditions: 4 h; dosed: 2-Hydroxy-4-methoxybenzophenone; 500 mg/kg; oral; Female; B6C3F1
[2] = tested on: Mouse; conditions: 0.5 h; dosed: 2-Hydroxy-4-methoxybenzophenone; 50 mg/kg; iv; Female; B6C3F1
[3] = tested on: Rat; conditions: 5 min; dosed: 2-Hydroxy-4-methoxybenzophenone; 8 mg/kg; iv; Male; F344
[4] = tested on: Mouse; conditions: 10 h; dosed: 2-Hydroxy-4-methoxybenzophenone; 500 mg/kg; oral; Male; B6C3F1
[5] = tested on: Rat; conditions: dosed: 2-Hydroxy-4-methoxybenzophenone, 100 mg/kg, oral, Male, F344
[6] = tested on: Mouse; conditions: 4 h; dosed: 2-Hydroxy-4-methoxybenzophenone; 250 mg/kg; oral; Female; B6C3F1
[7] = tested on: Mouse; conditions: 6 h; dosed: 2-Hydroxy-4-methoxybenzophenone; 500 mg/kg; oral; Male; B6C3F1
[8] = tested on: Mouse; conditions: 6 h; dosed: 2-Hydroxy-4-methoxybenzophenone; 500 mg/kg; oral; Female; B6C3F1
[9] = tested on: Mouse; conditions: 1.5 h; dosed: 2-Hydroxy-4-methoxybenzophenone; 250 mg/kg; oral; Female; B6C3F1
[10] = tested on: Mouse; conditions: 1 h; dosed: 2-Hydroxy-4-methoxybenzophenone; 500 mg/kg; oral; Female; B6C3F1
[11] = tested on: Mouse; conditions: 4 h; dosed: 2-Hydroxy-4-methoxybenzophenone; 50 mg/kg; iv; Male; B6C3F1
[12] = tested on: Rat; conditions: dosed: 2-Hydroxy-4-methoxybenzophenone, 500 mg/kg, oral, Female, F344
[13] = tested on: Mouse; conditions: 4 h; dosed: 2-Hydroxy-4-methoxybenzophenone; 250 mg/kg; oral; Male; B6C3F1
[14] = tested on: Mouse; conditions: 0.5 h; dosed: 2-Hydroxy-4-methoxybenzophenone; 50 mg/kg; iv; Male; B6C3F1
[15] = tested on: Mouse; conditions: 1 h; dosed: 2-Hydroxy-4-methoxybenzophenone; 500 mg/kg; oral; Male; B6C3F1
[16] = tested on: Rat; conditions: 1 h; dosed: 2-Hydroxy-4-methoxybenzophenone; 8 mg/kg; iv; Female; F344
[17] = tested on: Mouse; conditions: dosed: 2-Hydroxy-4-methoxybenzophenone, 100 mg/kg, oral, Male, B6C3F1
[18] = tested on: Mouse; conditions: 1.5 h; dosed: 2-Hydroxy-4-methoxybenzophenone; 250 mg/kg; oral; Female; B6C3F1; remark: listed apart in the source
[19] = tested on: Mouse; conditions: 5 h; dosed: 2-Hydroxy-4-methoxybenzophenone; 250 mg/kg; oral; Male; B6C3F1
[20] = tested on: Mouse; conditions: 6 h; dosed: 2-Hydroxy-4-methoxybenzophenone; 250 mg/kg; oral; Male; B6C3F1
[21] = tested on: Mouse; conditions: 4 h; dosed: 2-Hydroxy-4-methoxybenzophenone; 250 mg/kg; oral; Female; B6C3F1; remark: listed apart in the source
[22] = tested on: Rat; conditions: 16 h; dosed: 2-Hydroxy-4-methoxybenzophenone; 500 mg/kg; oral; Male; F344
[23] = tested on: Mouse; conditions: 12 h; dosed: 2-Hydroxy-4-methoxybenzophenone; 500 mg/kg; oral; Female; B6C3F1
[24] = tested on: Mouse; conditions: 0.5 h; dosed: 2-Hydroxy-4-methoxybenzophenone; 50 mg/kg; iv; Male; B6C3F1; remark: listed apart in the source
[25] = tested on: Rat; conditions: dosed: 2-Hydroxy-4-methoxybenzophenone, 8 mg/kg, iv, Male, F344
[26] = tested on: Rat; conditions: dosed: 2-Hydroxy-4-methoxybenzophenone, 250 mg/kg, oral, Female, F344
[27] = tested on: Rat; conditions: dosed: 2-Hydroxy-4-methoxybenzophenone, 250 mg/kg, oral, Female, F344; remark: listed apart in the source
[28] = tested on: Rat; conditions: dosed: Perfluorohexanoic Acid, 160 mg/kg, oral, Male, Harlan Sprague Dawley
[29] = tested on: Rat; conditions: 6 h; dosed: Perfluorohexanoic Acid; 80 mg/kg; oral; Female; Harlan Sprague Dawley
[30] = tested on: Rat; conditions: dosed: Perfluorohexanoic Acid, 40 mg/kg, oral, Female, Harlan Sprague Dawley
[31] = tested on: Rat; conditions: dosed: Perfluorohexanoic Acid, 160 mg/kg, oral, Male, Harlan Sprague Dawley; remark: listed apart in the source
[32] = tested on: Rat; conditions: dosed: Perfluorohexanoic Acid, 40 mg/kg, Male, F344
[33] = tested on: Rat; conditions: 1 h; dosed: Perfluorohexanoic Acid; 40 mg/kg; oral; Male; Harlan Sprague Dawley
[34] = tested on: Rat; conditions: dosed: Perfluorohexanoic Acid, 40 mg/kg, oral, Male, Harlan Sprague Dawley
[35] = tested on: Rat; conditions: dosed: Perfluorohexanoic Acid, 160 mg/kg, oral, Female, Harlan Sprague Dawley

O=C(c1ccccc1)c1ccc(O)cc1O [2,4-Dihydroxybenzophenone]
Conditions	concentration in plasma [ng/mL]
[1]	769
[2]	202
[3]	72.4
[4]	208
[6]	228
[7]	262
[8]	241
[9]	266

[5]
Conditions	concentration in plasma [ng/mL]
1 h	158
6 h	44.8

COc1ccc(C(=O)c2ccccc2)c(O)c1 [2-Hydroxy-4-methoxybenzophenone]
Conditions	concentration in plasma
[10]	120 ng/mL
[11]	94.3 ng/mL
[13]	26.1 ng/mL
[14]	2570 ng/mL
[15]	265 ng/mL
[16]	146 ng/mL
[18]	67.1 ng/mL
[19]	18.6 ng/mL
[20]	32.8 ng/mL
[21]	19.5 ng/mL
[22]	263 ng/mL
[23]	8.94 ng/mL and 13.1 ng/mL
[24]	2840 ng/mL

Conditions	concentration in plasma [ng/mL]
[12], 2 h	1290
[12], 5 min	50
[17], 0.5 h	58.7
[17], 0.75 h	74.3
[17], 1 h	28.8
[17], 1.5 h	31.6
[17], 4 h	16.6
[17], 5 h	16.2
[17], 5 min	49.9
[17], 6 h	13.4
[25], 0.5 h	791
[25], 8 h	19.3
[26], 1.5 h	567
[26], 8 h	18.6
[27], 0.5 h	453
[27], 10 h	11.7

O=C(O)C(F)(F)C(F)(F)C(F)(F)C(F)(F)C(F)(F)F [Perfluorohexanoic Acid]
Conditions	concentration in plasma [ng/mL]
[28], 3 h	234000
[28], 5 min	103000
[30], 0.5 h	41700
[30], 9 h	218
[31], 1 h	215000
[31], 24 h	1700
[32], 0.25 h	162000
[32], 6 h	131
[34], 3 h	15300
[34], 5 min	22100
[35], 0.5 h	156000
[35], 9 h	862

Conditions	concentration in plasma [ng/mL]
[29]	6200
[33]	36400
